Source: PubChem BioAssay AID493014 (National Center for Advancing Translational Sciences (NCATS), 2011)
The campaign covered roughly 340,000 compounds. About 170 (0.05%) were called active. This list was built around the results that the source calls inconclusive (neither active nor inactive); the mix of calls is not that of the screen. The call rests on the fitted dose curve; in most records, active means well fitted inhibition curve with a large enough effect in the signal ratio, with a control signal flat (not every such curve was filed as active); inconclusive means small, poorly fitted or top-dose-only effect, or effect the other way, or a change in a side signal; inactive means flat fitted curve, though single readings scatter; the % refers to the signal ratio. Where the call is inconclusive, the potency comes from a doubtful curve fit.
Potency means the concentration at half of the fitted maximal effect.

Assay: qHTS Assay to Find Inhibitors of Chronic Active B-Cell Receptor Signaling;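 on activity change, negative = inhibition: plate controls were basal doxycycline-induced cells for no effect and cells given 10 µM MG132 for full effect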
Conditions: ABC-DLBCL IkBa-CBG/CBR reporter, luminescence ratio (green luciferase fused to IkBa over red control in TMD8 lymphoma cells), 4 h; activity change, negative = inhibition: at 46.1 µM (top of the series) unless noted
Summary of the method: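 Cell line TMD8 (human ABC DLBCL), stably expressing tet-inducible CBG68-IkBa fusion and CBR; IMDM/0.5% FBS; cpd up to 46 uM; dox induction, 4 h, 37C/5% CO2; dual luminescence; green/red ratio; MG132 control.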
For `Cn1nnc2c(N3CCN(c4ccc(F)cc4)CC3)ncnc21`, the Potency was inconclusive: 0.112 µM [falling, full curve, poor fit].
With `Cc1cc(C)n2c(Br)c(CSc3nc4ccccc4o3)nc2n1` the activity change, negative = inhibition was “inactive”.
In the case of `Cc1nc(NC(=O)/C=C/c2ccccc2)sc1C(=O)NCCO`, the Potency is reported as inconclusive: 2.82 µM [falling, full curve].
In the case of `O=C(O)c1ccccc1SCc1cn2cc(Cl)ccc2n1`, the activity change, negative = inhibition is reported as inconclusive: -1.35%.
For `COc1ccc(-c2csc(-c3ccc(O)cc3)n2)cc1`, the Potency was inconclusive: 35.5 µM [falling, single point].
In the case of `Cc1occc1-c1nnc(SCC(=O)Nc2nc(-c3ccccc3)cs2)o1`, the Potency is reported as inconclusive: 0.326 µM [rising, partial curve, poor fit].
With `C/C=C/CSc1nc2c(c(=O)[nH]c(=O)n2C)n1C(C)C` the activity change, negative = inhibition was inconclusive: -1.13%.
For `Cc1ccc(-n2c(C)nc3c(cnn3-c3ccc(C)c(C)c3)c2=O)cc1C`, the activity change, negative = inhibition was “inactive”.
For `Cc1nc(-n2ncc(C#N)c2N)c2c3c(sc2n1)CCC3`, the activity change, negative = inhibition was inconclusive: -13%.
In the case of `O=C(c1ccccc1)c1c2c(cc3sc4ccccc4[n+]13)-c1cccc3cccc-2c13`, the activity change, negative = inhibition is reported as inconclusive: -2.36%.
For `COc1cccc(C(C2C(=O)CC(C)(C)CC2=O)C2C(=O)CC(C)(C)CC2=O)c1`, the activity change, negative = inhibition was inconclusive: 6.83%.
In the case of `CC(=O)Nc1ccc(NC(=O)Nc2ccc(C)c(C)c2)cc1`, the activity change, negative = inhibition is reported as “inactive”.
With `O=C1CC(NCCc2ccccc2)C(=O)N1CCc1ccccc1` (centres undefined) the Potency was inconclusive: 2.24 µM [falling, partial curve].
With `Cc1ccccc1-c1nc(CN2CCCC(C(=O)NCc3cccnc3)C2)c(C)o1` (centres undefined) the activity change, negative = inhibition was “inactive”.
For `O=c1[nH]c2ccccc2nc1NCc1ccccc1`, the Potency was inconclusive: 31.6 µM [falling, single point].
With `O=C(Nc1nnc(-c2ccccc2F)s1)c1ccccc1F` the Potency was inconclusive: 12.6 µM [falling, partial curve].
In the case of `Clc1ccc(-c2nnc(-c3cccnc3)o2)cc1`, the activity change, negative = inhibition is reported as inconclusive: 11%.
For `Cc1ccc(OCC(=O)Nc2ccc3c(c2)nc(CCN2CCCCC2)n3C)cc1`, the activity change, negative = inhibition was “inactive”.
With `Cc1cccc(OCCC(=O)Nc2ccc(F)c(F)c2)c1` the activity change, negative = inhibition was inconclusive: -22.4%.
With `Cc1csc(NC(=O)CSc2nnc(-c3cc(C)on3)o2)n1` the Potency was inconclusive: 23.1 µM [falling, single point].
With `COc1ccc(NC(=O)O/N=C/c2ccc(N(C)C)cc2)cc1` the activity change, negative = inhibition was inconclusive: -16.5%.
In the case of `COc1ccc(C2CC(c3ccccc3)=NN2C(=O)COC(=O)C2(C)CC2(Cl)Cl)cc1` (centres undefined), the activity change, negative = inhibition is reported as “inactive”.
In the case of `CC(=O)N1N=C(c2ccc(C)cc2)OC1c1ccc(C)cc1` (centres undefined), the activity change, negative = inhibition is reported as inconclusive: 15.4%.
In the case of `Cc1ccc(-c2noc(CCCC(=O)Nc3cccnc3)n2)cc1`, the activity change, negative = inhibition is reported as “inactive”.
With `O=C(c1nc2n(n1)C(c1ccc(Cl)cc1)C=C(c1ccccc1)N2)N1CCOCC1` (centres undefined) the activity change, negative = inhibition was inconclusive: -0.359%.
With `CC(=O)c1nnn(-c2ccc([N+](=O)[O-])cc2C)c1C` the activity change, negative = inhibition was inconclusive: 1.84%.
For `COc1cc(Nc2nc(SCc3ccccc3Cl)nc3ccccc23)cc(OC)c1`, the Potency was inconclusive: 12.6 µM [rising, single point].
With `Cc1cc(Cl)cc(Br)c1OCCCN1C(=O)NC(C)(C)C1=O` the activity change, negative = inhibition was inconclusive: 12.2%.
For `CCOc1cccc2sc(N(CCN(C)C)C(=O)c3cc4ccccc4cc3OC)nc12`, the activity change, negative = inhibition was inconclusive: -29.8%.
With `CCCN1C(=O)c2cc(C(=O)Nc3ccccc3C)ccc2C1Nc1ccccc1C` (centres undefined) the activity change, negative = inhibition was inconclusive: -2.67%.
With `Cc1ccc(Nc2nnc(-c3ccncc3)s2)c(Br)c1` the Potency was inconclusive: 7.31 µM [falling, partial curve, poor fit].
For `COc1ccc(C(=O)Nc2ccc(Cl)cc2C(=O)N2CCOCC2)cc1`, the activity change, negative = inhibition was inconclusive: 0.516%.
In the case of `O=C(/C=C/c1ccccc1)N1CCN(c2c(Cl)cccc2[N+](=O)[O-])CC1`, the activity change, negative = inhibition is reported as “inactive”.
In the case of `CCc1ccc(C(=O)C(C)OC(=O)Cc2n[nH]c(=O)c3ccccc23)cc1` (centres undefined), the activity change, negative = inhibition is reported as “inactive”.
For `Cc1cc(C)c2c(N)c(C(=O)Nc3ccc(C)c(C)c3)sc2n1`, the activity change, negative = inhibition was “inactive”.
With `CN(C)c1cccc(C(=O)Nc2cccc(F)c2)c1` the activity change, negative = inhibition was inconclusive: -0.31%.
For `COC(=O)C(C#N)C(=C1C(=O)CC(C)(C)CC1=O)c1ccc(O)cc1` (centres undefined), the activity change, negative = inhibition was inconclusive: -7.32%.
For `CSCc1cccc(C(=O)OC(C)C(=O)Nc2c(C)n(C)n(-c3ccccc3)c2=O)c1` (centres undefined), the activity change, negative = inhibition was “inactive”.
For `COc1cc(C(=O)N2CCN(c3ncnc4sc(C)c(C)c34)CC2)cc(OC)c1OC`, the activity change, negative = inhibition was inconclusive: -14.4%.
With `CC(C)(C)C(=O)NCCc1nc2ccccc2n1CC(=O)c1ccccc1` the activity change, negative = inhibition was “inactive”.
With `CCN(CC)c1nc(C)c(C(=S)Nc2cc([N+](=O)[O-])ccc2Cl)s1` the activity change, negative = inhibition was inconclusive: -1.55%.
With `CCCN1CNc2c(c(=O)[nH]c(=S)n2CCc2ccc(OC)c(OC)c2)C1` the activity change, negative = inhibition was “inactive”.
With `COc1ccc(C(=O)COC(=O)CN2CC(=O)Oc3ccccc32)cc1Br` the Potency was inconclusive: 18.4 µM [falling, partial curve].
In the case of `CN(C(=S)NC(=O)Cc1ccccc1)c1ccccc1`, the Potency is reported as inconclusive: 35.5 µM [cytotoxic, single point].
In the case of `COc1ccc2c(c1)Sc1ccccc1N2`, the activity change, negative = inhibition is reported as “inactive”.
With `COc1ccc(NC(=O)Nc2ccc3c(c2)CCC3)cc1OC` the activity change, negative = inhibition was “inactive”.
For `COc1ccccc1C1C=C(c2ccc(C(C)C)cc2)Nc2nnnn21` (centres undefined), the activity change, negative = inhibition was inconclusive: 15.9%.
For `Clc1ccc(-c2csc(N/N=C/c3cccnc3)n2)c(Cl)c1`, the activity change, negative = inhibition was “inactive”.
With `CCOC(=O)CC1C(=O)NCCN1c1nc2ccc(C)cn2c(=O)c1/C=C1\SC(=S)N(C(C)CC)C1=O` (centres undefined) the Potency was inconclusive: 10 µM [falling, partial curve].
With `COc1cc2sc3cc(NCC[C@@H]4CCCN4C)ccc3c(=O)c2cc1OC` the activity change, negative = inhibition was “inactive”.
For `O=C(COC(=O)/C=C/c1cc(Br)ccc1F)NC1CC1`, the activity change, negative = inhibition was “inactive”.
For `Cc1nc2cc(NC(=O)Nc3nccs3)ccc2n1C`, the activity change, negative = inhibition was inconclusive: 10.8%.
In the case of `Cc1noc2ncnc(Sc3ccc(Br)cc3)c12`, the activity change, negative = inhibition is reported as inconclusive: -4.07%.
For `CC(=O)c1cccc(NC(=S)NNC(=O)c2ccco2)c1`, the activity change, negative = inhibition was inconclusive: -8.62%.
With `CCOc1ccc(NC(=NCc2ccc3c(c2)OCO3)SC2CC(=O)N(c3ccc(OCC)cc3)C2=O)cc1` (centres undefined) the activity change, negative = inhibition was inconclusive: 11.3%.
With `CC(C)C[C@H]1CN=C(Nc2ccccc2)N1CCC(C)c1ccccc1` (some centres undefined) the activity change, negative = inhibition was inconclusive: -17.3%.
For `Cc1nc2sc(-c3ccccc3)cc2c(=O)[nH]1`, the Potency was inconclusive: 4.61 µM [falling, partial curve].
With `CCN(CC)C(=O)Nc1ccc(C(=O)OC)cc1` the activity change, negative = inhibition was inconclusive: -23.8%.
For `COc1ccccc1CCNC(=O)Cn1ccc2cc(S(=O)(=O)N3CCCC3)ccc21`, the activity change, negative = inhibition was inconclusive: 10.2%.
In the case of `CCCCCn1nc(C)c(/C=N/NC(=O)c2ccoc2C)c1C`, the Potency is reported as inconclusive: 6.51 µM [falling, single point].
For `COc1cc(Cl)c(S(=O)(=O)NCCCn2ccnc2)cc1Cl`, the activity change, negative = inhibition was “inactive”.
In the case of `CCCn1c2c(c(O)c(C(=O)Nc3ccccc3)c1=O)CCCC2`, the activity change, negative = inhibition is reported as inconclusive: -0.876%.
In the case of `COCCNC(=O)c1cc2nc(-c3ccc(F)cc3)cc(C(F)(F)F)n2n1`, the activity change, negative = inhibition is reported as “inactive”.
With `O=C(N/N=C\c1ccccn1)C1c2ccccc2Oc2ccccc21` the Potency was inconclusive: 6.31 µM [falling, full curve].
With `O=c1c2oc3ccccc3c2[nH]c(=S)n1-c1ccccc1` the Potency was inconclusive: 25.9 µM [falling, single point].
With `CC(C)C(=O)Nc1ccc(-c2nnc(-c3ccccc3)o2)cc1` the activity change, negative = inhibition was “inactive”.
With `CCCc1[nH]nc2c1C1(CCN(C(=O)OCc3ccccc3)CC1)C(C#N)=C(N)O2` the activity change, negative = inhibition was inconclusive: 5.08%.
In the case of `Cc1cccc(CSc2cccc3cccnc23)c1`, the Potency is reported as inconclusive: 6.31 µM [cytotoxic, single point].
In the case of `COc1ccc(NC(=O)/C(C#N)=C/c2c(C)nn(-c3ccc(F)cc3)c2Cl)cc1Cl`, the activity change, negative = inhibition is reported as “inactive”.
With `COc1ccccc1CN(Cc1cc2cc(C)ccc2[nH]c1=O)Cc1nnnn1CC1CCCO1` (centres undefined) the Potency was inconclusive: 13 µM [falling, partial curve].
For `COc1ccc(NC(=O)c2cccnc2Nc2ccc(OC)cc2)cc1`, the activity change, negative = inhibition was “inactive”.
For `Cc1nc(-c2ccccc2)sc1C(=O)/C=C/c1ccccc1`, the Potency was inconclusive: 7.08 µM [rising, partial curve, poor fit].
For `Cc1sc2ncnc(NCc3cccs3)c2c1C`, the activity change, negative = inhibition was inconclusive: 9.38%.
For `Cc1cccc(NC(=O)CN2CCCN(S(=O)(=O)c3ccc(Br)s3)CC2)c1`, the activity change, negative = inhibition was inconclusive: -17.5%.
In the case of `COc1ccc(OC)c2sc(N3CCCCC3)nc12`, the activity change, negative = inhibition is reported as inconclusive: 0.781%.
With `CC(C)(c1ccccc1)c1ccc(OCCN)cc1` the activity change, negative = inhibition was inconclusive: -13%.
For `CC(NC(=O)c1cc(-c2ccncc2)nc2ccc(Cl)cc12)C1CCCO1` (centres undefined), the Potency was inconclusive: 0.447 µM [falling, full curve, poor fit].
With `Cc1cccc(NC(=S)NCc2ccco2)n1` the activity change, negative = inhibition was inconclusive: -5.92%.
For `N#C/C(=N\Nc1cccc(C(F)(F)F)c1)C(=O)c1ccsc1`, the Potency was inconclusive: 35.5 µM [falling, single point].
In the case of `O=c1[nH]c(/C=C/c2ccccc2F)nc2ccccc12`, the activity change, negative = inhibition is reported as “inactive”.
In the case of `COc1ccc(C)cc1NC(=O)c1ccc(OCc2c(C)noc2C)cc1`, the activity change, negative = inhibition is reported as inconclusive: 3.94%.
For `COC(=O)COC(=O)c1ccccc1NC(=O)c1ccccc1`, the Potency was inconclusive: 14.6 µM [falling, partial curve, poor fit].
With `CSc1cccc(N2CC(C(=O)N(Cc3nnc(-c4ccccc4Cl)o3)C3CC3)CC2=O)c1` (centres undefined) the activity change, negative = inhibition was “inactive”.
In the case of `COc1cccc(NC(=O)CSc2nc3ccccc3c(=O)n2Cc2cccs2)c1`, the activity change, negative = inhibition is reported as inconclusive: 3.69%.
